How the values were obtained:
[1] = test system: TAS2R38 gene; experiment: qPCR TAS2R38 gene expression in hTBEC 2 culture; type: cell-based, human; details: 1 μM; for Tas2R38tb (Ct): 3prime primer pair; for Tas2R38-5 (Ct): 5prime primer pair; for Tas2R38C (Ct): Tas2R38C DS primer pair; for Delta Tas2R38 3prime / Delta Tas2R38 5prime / Delta Tas2R38C DS: vs Bactin
From the text: (§1) Currently, very little is known about compounds that directly agonize and regulate TAS2R38 expression. Because of this, research related to the prenylflavonoid xanthohumol's effects on gene expression was compared with other TAS2R38 targeting compounds, namely sinigrin, a glucosinolate connected to the family of glucosides found in the Brassicaceae vegetable family and found in foods such as brussels sprouts and broccoli. […] selectively triggers the taster variant of the TAS2R38 receptor (Meyerhof, W. et al. The Molecular Receptive Ranges of Human TAS2R Bitter Taste Receptors. Chem Sense (2010) 35: 157-70.) […] was used as a comparator at a concentration of 1 the same concentration as xanthohumol (1 μM). Two hTBEC cultures were selected for this initial study. hTBEC 1 is derived from one of the most bitter-responsive cultures, which has a moderate/moderately low basal gene expression level of TAS2R38. hTBEC 2 is derived from a culture that responds to bitter stimuli, but has a high response in particular to TAS2R38 expression compared with other hTBEC repositories. RNA was harvested from cultures treated cultures and control cultures at 1 μM lead compound at 24 and 48 hours post treatment. Following is a table that explains the experimental paradigm in full: [table] In an effort to establishing a comprehensive understanding of xanthohumol's effects on gene expression, 3 unique primer pairs to accurately capture the TAS2R38 gene were developed as cultures. […] The published NCBI genetic sequence for the region of chromosome 7q that encodes TAS2R38 and overlay map the SNP variant markers to ensure the primers cover strategic regions of the TAS2R38 gene. For probing TAS2R38, 3 individual primer pairs were used for a comprehensive view of how the compound may be “hitting” the gene.

[2] = test system: TAS2R38 gene; experiment: qPCR TAS2R38 gene expression in hTBEC 1 culture; type: cell-based, human; details: 1 μM; for Tas2R38tb (Ct): 3prime primer pair; for Tas2R38-5 (Ct): 5prime primer pair; for Tas2R38C (Ct): Tas2R38C DS primer pair; for Delta Tas2R38 3prime / Delta Tas2R38 5prime / Delta Tas2R38C DS: vs Bactin
From the text: as §1

Row | Compound | Tas2R38tb (Ct) ([1]; hTBEC 2, 24 hour) | Tas2R38-5 (Ct) ([1]; hTBEC 2, 24 hour) | Tas2R38C (Ct) ([1]; hTBEC 2, 24 hour) | Delta Tas2R38 3prime ([1]; hTBEC 2, 24 hour) | Delta Tas2R38 5prime ([1]; hTBEC 2, 24 hour) | Delta Tas2R38C DS ([1]; hTBEC 2, 24 hour) | Tas2R38tb (Ct) ([1]; hTBEC 2, 48 hour) | Tas2R38-5 (Ct) ([1]; hTBEC 2, 48 hour) | Tas2R38C (Ct) ([1]; hTBEC 2, 48 hour) | Delta Tas2R38 3prime ([1]; hTBEC 2, 48 hour) | Delta Tas2R38 5prime ([1]; hTBEC 2, 48 hour) | Delta Tas2R38C DS ([1]; hTBEC 2, 48 hour) | Tas2R38tb (Ct) ([2]; hTBEC 1, 24 hour) | Tas2R38-5 (Ct) ([2]; hTBEC 1, 24 hour) | Tas2R38C (Ct) ([2]; hTBEC 1, 24 hour) | Delta Tas2R38 3prime ([2]; hTBEC 1, 24 hour) | Delta Tas2R38 5prime ([2]; hTBEC 1, 24 hour) | Delta Tas2R38C DS ([2]; hTBEC 1, 24 hour) | Tas2R38tb (Ct) ([2]; hTBEC 1, 48 hour) | Tas2R38-5 (Ct) ([2]; hTBEC 1, 48 hour) | further results
1 | COc1cc(O)c(CC=C(C)C)c(O)c1C(=O)/C=C/c1ccc(O)cc1 [xanthohumol] | 26.977 | 27.214 | 25.495 | 7.461 | 7.356 | 6.329 | 26.985 | 27.026 | 25.038 | 8.607 | 9.250 | 7.210 | 30.671 | 30.770 | 27.314 | 12.714 | 12.438 | 9.648 | 31.539 | 29.788 | Tas2R38C (Ct) ([2]; hTBEC 1, 48 hour): 28.949; Delta Tas2R38 3prime ([2]; hTBEC 1, 48 hour): 13.165; Delta Tas2R38 5prime ([2]; hTBEC 1, 48 hour): 12.016; Delta Tas2R38C DS ([2]; hTBEC 1, 48 hour): 11.093
2 | C=CCC(=NOS(=O)(=O)O)S[C@@H]1O[C@H](CO)[C@@H](O)[C@H](O)[C@H]1O (stereo in doubt) [sinigrin, reference compound] | 27.722 | 27.234 | 25.730 | 9.207 | 9.355 | 7.766 | 26.075 | 26.389 | 27.460 | 8.077 | 8.173 | 9.949 | 32.123 | 32.238 | 29.116 | 13.748 | 14.240 | 11.093 | 30.596 | 30.270 | Tas2R38C (Ct) ([2]; hTBEC 1, 48 hour): 30.027; Delta Tas2R38 3prime ([2]; hTBEC 1, 48 hour): 12.599; Delta Tas2R38 5prime ([2]; hTBEC 1, 48 hour): 12.430; Delta Tas2R38C DS ([2]; hTBEC 1, 48 hour): 12.353
